Results deposited as PubChem BioAssay AID602196 (INSERM, 2012)
Here is one part, drawn at random, of about 23,000 reagents. Of all reagents, 455 (2%) got an active call. 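Active includes both protection and sensitisation; some change values fall well beyond the stated -50 to +50 range.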 The numbers tell different reagents against one gene apart. Further read-outs or replicates are left out here. Not given: the amount of reagent.

Purpose: 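Knock-downs that protect lung cancer cells from cisplatin or sensitise them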
Cell system: human A549 lung cancer cells
Reagent: siRNA pair against human genes
Time to read-out: 48 h transfection before cisplatin; time from cisplatin to read-out not stated
Conditions: cisplatin at a dose killing half of control-siRNA cells; exact dose and duration not given
Detection: 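Cisplatin cell death as a shift from the 50% death seen with control siRNA; siRNAs toxic or growth-blocking alone scored 0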
Reading the numbers: two-siRNA summed score (-2 to +2): higher = both siRNAs protect from cisplatin killing; -2 means both sensitise; mean protection from cisplatin (shift in death): higher = protection from cisplatin killing
Active means: 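siRNAs harmful alone (LDH or WST-1) get 0; others get +1 for less and -1 for more cisplatin killing; genes are active when the two siRNAs give the same sign, summing to ±2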
Meaning of the calls: active = both siRNAs shift cisplatin killing the same way; inactive = no consistent shift, or siRNA harmful alone

Silencing of LOC389025 came out at: two-siRNA summed score (-2 to +2) = 0; mean protection from cisplatin (shift in death) (%) = 2.7; inactive.
LOC400812 gave two-siRNA summed score (-2 to +2) = 1; mean protection from cisplatin (shift in death) (%) = 7.6; inactive.
DDX24 gave two-siRNA summed score (-2 to +2) = 0; mean protection from cisplatin (shift in death) (%) = 2.4; inactive.
Depletion of XKR5 resulted in: two-siRNA summed score (-2 to +2) = 0; mean protection from cisplatin (shift in death) (%) = 4.4; inactive.
After knock-down of SLC2A11, the record shows two-siRNA summed score (-2 to +2) = -1; mean protection from cisplatin (shift in death) (%) = 2.5; inactive.
With knock-down of LOC389665, the screen gave two-siRNA summed score (-2 to +2) = 0; mean protection from cisplatin (shift in death) (%) = -4.9; inactive.
For TMC1, the entry reads two-siRNA summed score (-2 to +2) = 0; mean protection from cisplatin (shift in death) (%) = 2.3; inactive.
Depletion of APOA1 gave: two-siRNA summed score (-2 to +2) = -1; mean protection from cisplatin (shift in death) (%) = -23.5; inactive.
Against TGM4 the deposit lists two-siRNA summed score (-2 to +2) = 0; mean protection from cisplatin (shift in death) (%) = 4.4; inactive.
Against OGN, the entry reads two-siRNA summed score (-2 to +2) = 0; mean protection from cisplatin (shift in death) (%) = 0.1; inactive.
Silencing of OR2M4 resulted in: two-siRNA summed score (-2 to +2) = 0; mean protection from cisplatin (shift in death) (%) = 2.2; inactive.
Silencing of IFNA4 came out at: two-siRNA summed score (-2 to +2) = 0; mean protection from cisplatin (shift in death) (%) = 7.5; inactive.
For CEP112 the deposit lists two-siRNA summed score (-2 to +2) = 0; mean protection from cisplatin (shift in death) (%) = 10.8; inactive.
Against CFHR4, the entry reads two-siRNA summed score (-2 to +2) = 1; mean protection from cisplatin (shift in death) (%) = 12.2; inactive.
Depletion of SNX24 came out at: two-siRNA summed score (-2 to +2) = 0; mean protection from cisplatin (shift in death) (%) = -0.8; inactive.
FUT1 showed two-siRNA summed score (-2 to +2) = 1; mean protection from cisplatin (shift in death) (%) = 27.9; inactive.
For OR6V1, the values are two-siRNA summed score (-2 to +2) = -1; mean protection from cisplatin (shift in death) (%) = -1.8; inactive.
With knock-down of BMP8B, the record shows two-siRNA summed score (-2 to +2) = 0; mean protection from cisplatin (shift in death) (%) = -13.6; inactive.
Knock-down of TFB1M resulted in: two-siRNA summed score (-2 to +2) = 0; mean protection from cisplatin (shift in death) (%) = 3.8; inactive.
Against FHL3 the deposit lists two-siRNA summed score (-2 to +2) = 1; mean protection from cisplatin (shift in death) (%) = 9.5; inactive.
With knock-down of GRID2, the record shows two-siRNA summed score (-2 to +2) = 0; mean protection from cisplatin (shift in death) (%) = -7.5; inactive.
Silencing of CSRNP3 gave: two-siRNA summed score (-2 to +2) = 0; mean protection from cisplatin (shift in death) (%) = 8.4; inactive.
COMMD9 #1 showed two-siRNA summed score (-2 to +2) = 0; mean protection from cisplatin (shift in death) (%) = 4.8; inactive.
Knock-down of COMMD9 #2 resulted in: two-siRNA summed score (-2 to +2) = 1; mean protection from cisplatin (shift in death) (%) = 25.6; inactive.
Against ATP6V1F, the values are two-siRNA summed score (-2 to +2) = 0; mean protection from cisplatin (shift in death) (%) = -1.3; inactive.
After knock-down of MCM10, the record shows two-siRNA summed score (-2 to +2) = 0; mean protection from cisplatin (shift in death) (%) = 8.9; inactive.
NR6A1 scored two-siRNA summed score (-2 to +2) = 0; mean protection from cisplatin (shift in death) (%) = 3.2; inactive.
After knock-down of NALF2, the record shows two-siRNA summed score (-2 to +2) = 0; mean protection from cisplatin (shift in death) (%) = 2; inactive.
Knock-down of ZNF286A gave: two-siRNA summed score (-2 to +2) = 1; mean protection from cisplatin (shift in death) (%) = 16.6; inactive.
Against OR8H2, the values are two-siRNA summed score (-2 to +2) = 0; mean protection from cisplatin (shift in death) (%) = -2.3; inactive.
Depletion of ERCC6 gave: two-siRNA summed score (-2 to +2) = 0; mean protection from cisplatin (shift in death) (%) = 1; inactive.

2 consecutive records from above, quoted:
GRID2: two-siRNA summed score (-2 to +2) = 0; mean protection from cisplatin (shift in death) (%) = -7.5; activity call = inactive
CSRNP3: two-siRNA summed score (-2 to +2) = 0; mean protection from cisplatin (shift in death) (%) = 8.4; activity call = inactive
